In paper PMC4488483, “Reversible Oxidation of a Conserved Methionine in the Nuclear Export Sequence Determines Subcellular Distribution and Activity of the Fungal Nitrate Regulator NirA” (PLoS Genetics, 2015):
No constants are given. Whether binding was seen depends on the method and setting. In cells and extracts the contact can be indirect. Binding can be weak; no strength is given.

Tests used:
[1] = biological target: T1, NirA-NES synthetic peptide with methionine 169 sulfoxide (D159-G176) (Aspergillus nidulans); test: pull-down; biotinylated NES peptides immobilised on streptavidin Sepharose, incubated 2 h on ice with 1 ml cell-free extract of the strain Stag-KapK grown non-induced (arginine); washes with 150, 250 and 500 mM NaCl, 10 mM Tris-HCl pH 8; Western blot with anti-S-tag antibody; only the target purified
T1 sequence (peptide, methionine sulfoxide at 169; biotin (position not stated)): DQFESELAGKMSNLVLDG

[2] = biological target: T2, NirA-NES synthetic peptide with reduced methionine 169 (D159-G176) (Aspergillus nidulans); test: as above
T2 sequence (peptide, biotin (position not stated)): DQFESELAGKMSNLVLDG

S-tagged KapK (exportin KapK, the CRM1 homologue in A. nidulans) (from UniProt Q6Q6S4)
binding [1]: binds
binding [2]: binds
